Data: publication doi:10.1101/2021.08.16.456468
No constants are given. Whether binding was seen depends on the method and setting. Some binding calls cover weakened binding; strength is not graded here. For part of these data: Sequences can lack the tags named with a protein.

By UniProt entry, the sequences of proteins in these tests, tags left out. Where a name states a change or a piece, a line headed by the entry shows the natural chain unless it says otherwise.
UniProt P05648, whole entry: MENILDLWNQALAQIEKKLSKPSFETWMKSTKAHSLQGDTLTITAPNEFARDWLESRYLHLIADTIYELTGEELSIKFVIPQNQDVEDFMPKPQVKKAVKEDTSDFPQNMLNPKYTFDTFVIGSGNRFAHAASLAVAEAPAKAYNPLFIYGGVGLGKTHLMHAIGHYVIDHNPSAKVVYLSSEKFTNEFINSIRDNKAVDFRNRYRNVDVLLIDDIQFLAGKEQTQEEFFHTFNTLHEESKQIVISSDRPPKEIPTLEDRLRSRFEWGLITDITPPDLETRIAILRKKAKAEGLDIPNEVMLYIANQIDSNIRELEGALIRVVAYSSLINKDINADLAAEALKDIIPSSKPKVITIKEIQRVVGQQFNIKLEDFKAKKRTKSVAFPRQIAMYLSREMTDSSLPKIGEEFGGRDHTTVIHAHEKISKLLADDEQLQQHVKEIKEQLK

Key:
Assay in all cases: two-hybrid
[1] = molecular target: DnaA, wild type, full-length, bacterial two-hybrid fusion (B. subtilis) (UniProt P05648)
[2] = molecular target: T1, DnaB, full-length, bacterial two-hybrid fusion (B. subtilis), P07908; settings: remark: other sources report otherwise
T1 chain: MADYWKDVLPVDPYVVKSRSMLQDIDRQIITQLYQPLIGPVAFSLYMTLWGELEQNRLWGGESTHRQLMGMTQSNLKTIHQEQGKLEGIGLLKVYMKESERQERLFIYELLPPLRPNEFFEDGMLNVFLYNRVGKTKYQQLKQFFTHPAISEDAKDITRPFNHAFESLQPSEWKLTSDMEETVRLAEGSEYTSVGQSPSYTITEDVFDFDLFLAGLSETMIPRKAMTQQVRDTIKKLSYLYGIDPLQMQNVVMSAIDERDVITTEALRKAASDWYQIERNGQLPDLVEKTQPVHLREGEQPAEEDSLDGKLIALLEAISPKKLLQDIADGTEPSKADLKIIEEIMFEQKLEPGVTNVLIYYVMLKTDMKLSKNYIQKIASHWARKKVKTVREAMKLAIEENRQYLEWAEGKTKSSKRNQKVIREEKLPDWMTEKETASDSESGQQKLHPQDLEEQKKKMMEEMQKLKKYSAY

[3] = molecular target: T2, DnaB, full-length, bacterial two-hybrid fusion (B. subtilis) (UniProt P07908)
T2 sequence: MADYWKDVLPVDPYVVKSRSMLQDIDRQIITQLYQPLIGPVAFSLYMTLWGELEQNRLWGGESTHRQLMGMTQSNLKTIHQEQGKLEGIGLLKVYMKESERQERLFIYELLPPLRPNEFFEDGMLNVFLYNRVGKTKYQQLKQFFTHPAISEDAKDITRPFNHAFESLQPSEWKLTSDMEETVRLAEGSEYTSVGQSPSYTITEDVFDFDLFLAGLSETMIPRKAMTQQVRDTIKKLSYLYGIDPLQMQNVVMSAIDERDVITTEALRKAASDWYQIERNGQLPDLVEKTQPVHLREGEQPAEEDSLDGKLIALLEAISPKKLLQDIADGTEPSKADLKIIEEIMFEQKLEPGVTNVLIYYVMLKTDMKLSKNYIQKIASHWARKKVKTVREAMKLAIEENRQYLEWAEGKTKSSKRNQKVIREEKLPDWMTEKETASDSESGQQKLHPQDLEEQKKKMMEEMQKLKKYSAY

## DnaA^F49A, full-length, bacterial two-hybrid fusion (from UniProt P05648 1-446)
[1]
  binding: binds

## DnaA^W27A, full-length, bacterial two-hybrid fusion (from UniProt P05648 1-446)
[1]
  binding: binds

## DnaA^T26A, full-length, bacterial two-hybrid fusion (from UniProt P05648 1-446)
[1]
  binding: binds

## DnaA, wild type, full-length, bacterial two-hybrid fusion (from UniProt P05648 1-446)
[1]
  binding: binds

B1: DnaD, wild type, full-length, bacterial two-hybrid fusion, P39787 1-232 (protein)
chain: MKKQQFIDMQEQGTSTIPNLLLTHYKQLGLNETELILLLKIKMHLEKGSYFPTPNQLQEGMSISVEECTNRLRMFIQKGFLFIEECEDQNGIKFEKYSLQPLWGKLYEYIQLAQNQTQERKAEGEQKSLYTIFEEEFARPLSPLECETLAIWQDQDQHDAQLIKHALKEAVLSGKLSFRYIDRILFEWKKNGLKTVEQAKIHSQKFRRVQAKQNEPQKEYKRQVPFYNWLEQ
[2]
  binding: binds

B2: DnaD^F6A, full-length, bacterial two-hybrid fusion (protein, UniProt P39787 1-232)
chain: MKKQQAIDMQEQGTSTIPNLLLTHYKQLGLNETELILLLKIKMHLEKGSYFPTPNQLQEGMSISVEECTNRLRMFIQKGFLFIEECEDQNGIKFEKYSLQPLWGKLYEYIQLAQNQTQERKAEGEQKSLYTIFEEEFARPLSPLECETLAIWQDQDQHDAQLIKHALKEAVLSGKLSFRYIDRILFEWKKNGLKTVEQAKIHSQKFRRVQAKQNEPQKEYKRQVPFYNWLEQ
[3]
  binding: binds

B3: DnaD^W229A, bacterial two-hybrid fusion (protein, UniProt P39787 1-232)
chain: MKKQQFIDMQEQGTSTIPNLLLTHYKQLGLNETELILLLKIKMHLEKGSYFPTPNQLQEGMSISVEECTNRLRMFIQKGFLFIEECEDQNGIKFEKYSLQPLWGKLYEYIQLAQNQTQERKAEGEQKSLYTIFEEEFARPLSPLECETLAIWQDQDQHDAQLIKHALKEAVLSGKLSFRYIDRILFEWKKNGLKTVEQAKIHSQKFRRVQAKQNEPQKEYKRQVPFYNALEQ
[3]
  binding: no binding

B4: DnaD with deletion of the last eight amino acids, bacterial two-hybrid fusion (domain or fragment, UniProt P39787 1-224)
chain: MKKQQFIDMQEQGTSTIPNLLLTHYKQLGLNETELILLLKIKMHLEKGSYFPTPNQLQEGMSISVEECTNRLRMFIQKGFLFIEECEDQNGIKFEKYSLQPLWGKLYEYIQLAQNQTQERKAEGEQKSLYTIFEEEFARPLSPLECETLAIWQDQDQHDAQLIKHALKEAVLSGKLSFRYIDRILFEWKKNGLKTVEQAKIHSQKFRRVQAKQNEPQKEYKRQV
[3]
  binding: no binding

B5: DnaD^L22A, full-length, bacterial two-hybrid fusion (protein, UniProt P39787 1-232)
chain: MKKQQFIDMQEQGTSTIPNLLATHYKQLGLNETELILLLKIKMHLEKGSYFPTPNQLQEGMSISVEECTNRLRMFIQKGFLFIEECEDQNGIKFEKYSLQPLWGKLYEYIQLAQNQTQERKAEGEQKSLYTIFEEEFARPLSPLECETLAIWQDQDQHDAQLIKHALKEAVLSGKLSFRYIDRILFEWKKNGLKTVEQAKIHSQKFRRVQAKQNEPQKEYKRQVPFYNWLEQ
[3]
  binding: no binding
